Our source for the binding values is paper PMC8140133.

The chains behind the UniProt entries cited, without tags or fusion partners.
UniProt Q8TD26: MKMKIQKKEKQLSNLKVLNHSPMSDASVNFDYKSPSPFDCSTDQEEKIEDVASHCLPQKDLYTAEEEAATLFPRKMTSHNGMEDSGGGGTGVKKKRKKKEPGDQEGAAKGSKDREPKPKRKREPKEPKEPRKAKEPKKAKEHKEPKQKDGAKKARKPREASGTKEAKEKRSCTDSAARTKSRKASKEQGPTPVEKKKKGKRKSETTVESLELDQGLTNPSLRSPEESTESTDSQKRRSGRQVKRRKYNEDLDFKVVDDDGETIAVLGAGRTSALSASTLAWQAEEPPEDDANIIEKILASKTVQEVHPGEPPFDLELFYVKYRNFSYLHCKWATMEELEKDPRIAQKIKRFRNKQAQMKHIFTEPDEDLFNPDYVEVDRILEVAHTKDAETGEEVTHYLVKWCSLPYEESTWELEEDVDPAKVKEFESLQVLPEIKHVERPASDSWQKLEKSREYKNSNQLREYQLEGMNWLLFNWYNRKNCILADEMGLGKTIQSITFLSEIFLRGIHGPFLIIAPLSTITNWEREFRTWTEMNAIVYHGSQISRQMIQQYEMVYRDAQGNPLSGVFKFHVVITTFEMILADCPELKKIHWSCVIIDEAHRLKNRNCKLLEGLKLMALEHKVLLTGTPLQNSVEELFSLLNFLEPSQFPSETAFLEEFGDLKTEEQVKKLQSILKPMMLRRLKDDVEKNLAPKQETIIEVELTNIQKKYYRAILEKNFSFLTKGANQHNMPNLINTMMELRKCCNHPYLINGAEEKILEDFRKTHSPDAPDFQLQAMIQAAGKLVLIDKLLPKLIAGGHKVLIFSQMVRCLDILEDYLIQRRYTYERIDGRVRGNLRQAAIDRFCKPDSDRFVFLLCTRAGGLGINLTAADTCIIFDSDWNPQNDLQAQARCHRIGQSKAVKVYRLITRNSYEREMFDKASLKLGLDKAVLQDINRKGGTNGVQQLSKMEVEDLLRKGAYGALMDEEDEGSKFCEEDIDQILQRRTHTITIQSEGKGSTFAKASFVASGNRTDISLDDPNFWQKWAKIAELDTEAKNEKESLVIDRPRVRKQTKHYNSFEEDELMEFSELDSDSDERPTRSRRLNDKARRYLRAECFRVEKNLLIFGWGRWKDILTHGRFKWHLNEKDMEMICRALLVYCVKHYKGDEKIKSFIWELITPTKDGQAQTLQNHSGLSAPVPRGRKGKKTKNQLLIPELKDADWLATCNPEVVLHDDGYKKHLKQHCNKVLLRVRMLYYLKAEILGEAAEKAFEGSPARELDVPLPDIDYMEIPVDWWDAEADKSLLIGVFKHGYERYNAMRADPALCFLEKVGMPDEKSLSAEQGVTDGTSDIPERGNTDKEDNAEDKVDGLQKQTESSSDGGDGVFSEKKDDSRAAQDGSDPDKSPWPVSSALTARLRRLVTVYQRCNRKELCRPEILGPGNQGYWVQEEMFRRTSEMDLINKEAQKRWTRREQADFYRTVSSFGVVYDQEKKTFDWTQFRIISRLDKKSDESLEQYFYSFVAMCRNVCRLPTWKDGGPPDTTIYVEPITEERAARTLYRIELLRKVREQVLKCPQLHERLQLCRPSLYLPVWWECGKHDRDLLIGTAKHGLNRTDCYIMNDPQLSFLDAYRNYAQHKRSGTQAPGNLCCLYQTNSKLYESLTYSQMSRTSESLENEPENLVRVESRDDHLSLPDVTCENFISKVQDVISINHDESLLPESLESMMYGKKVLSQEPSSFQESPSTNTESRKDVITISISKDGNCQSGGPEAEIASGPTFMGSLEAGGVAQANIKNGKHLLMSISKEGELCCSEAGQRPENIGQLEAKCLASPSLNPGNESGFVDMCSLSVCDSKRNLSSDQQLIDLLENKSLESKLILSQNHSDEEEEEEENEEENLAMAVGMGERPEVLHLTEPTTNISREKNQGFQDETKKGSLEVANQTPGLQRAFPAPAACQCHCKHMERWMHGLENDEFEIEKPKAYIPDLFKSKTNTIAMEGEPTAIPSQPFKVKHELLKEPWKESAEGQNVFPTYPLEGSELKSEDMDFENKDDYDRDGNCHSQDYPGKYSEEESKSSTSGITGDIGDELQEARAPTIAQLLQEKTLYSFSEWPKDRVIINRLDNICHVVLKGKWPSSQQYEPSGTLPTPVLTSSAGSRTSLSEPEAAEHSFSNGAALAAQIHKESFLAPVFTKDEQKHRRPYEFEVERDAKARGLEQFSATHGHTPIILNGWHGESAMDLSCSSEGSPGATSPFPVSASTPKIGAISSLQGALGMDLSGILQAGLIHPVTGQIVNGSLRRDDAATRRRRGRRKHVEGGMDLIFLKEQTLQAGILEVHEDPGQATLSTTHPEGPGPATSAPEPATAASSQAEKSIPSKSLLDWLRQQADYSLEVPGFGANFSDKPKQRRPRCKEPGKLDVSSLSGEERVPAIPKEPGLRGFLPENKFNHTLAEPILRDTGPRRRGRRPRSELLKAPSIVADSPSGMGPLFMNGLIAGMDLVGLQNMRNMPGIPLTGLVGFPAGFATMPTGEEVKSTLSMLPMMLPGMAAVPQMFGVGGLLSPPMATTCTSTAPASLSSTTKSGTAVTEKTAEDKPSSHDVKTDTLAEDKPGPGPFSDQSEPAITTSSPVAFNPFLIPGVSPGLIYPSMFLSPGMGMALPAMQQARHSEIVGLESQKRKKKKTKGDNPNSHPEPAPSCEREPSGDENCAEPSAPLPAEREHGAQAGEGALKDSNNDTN
UniProt Q92922: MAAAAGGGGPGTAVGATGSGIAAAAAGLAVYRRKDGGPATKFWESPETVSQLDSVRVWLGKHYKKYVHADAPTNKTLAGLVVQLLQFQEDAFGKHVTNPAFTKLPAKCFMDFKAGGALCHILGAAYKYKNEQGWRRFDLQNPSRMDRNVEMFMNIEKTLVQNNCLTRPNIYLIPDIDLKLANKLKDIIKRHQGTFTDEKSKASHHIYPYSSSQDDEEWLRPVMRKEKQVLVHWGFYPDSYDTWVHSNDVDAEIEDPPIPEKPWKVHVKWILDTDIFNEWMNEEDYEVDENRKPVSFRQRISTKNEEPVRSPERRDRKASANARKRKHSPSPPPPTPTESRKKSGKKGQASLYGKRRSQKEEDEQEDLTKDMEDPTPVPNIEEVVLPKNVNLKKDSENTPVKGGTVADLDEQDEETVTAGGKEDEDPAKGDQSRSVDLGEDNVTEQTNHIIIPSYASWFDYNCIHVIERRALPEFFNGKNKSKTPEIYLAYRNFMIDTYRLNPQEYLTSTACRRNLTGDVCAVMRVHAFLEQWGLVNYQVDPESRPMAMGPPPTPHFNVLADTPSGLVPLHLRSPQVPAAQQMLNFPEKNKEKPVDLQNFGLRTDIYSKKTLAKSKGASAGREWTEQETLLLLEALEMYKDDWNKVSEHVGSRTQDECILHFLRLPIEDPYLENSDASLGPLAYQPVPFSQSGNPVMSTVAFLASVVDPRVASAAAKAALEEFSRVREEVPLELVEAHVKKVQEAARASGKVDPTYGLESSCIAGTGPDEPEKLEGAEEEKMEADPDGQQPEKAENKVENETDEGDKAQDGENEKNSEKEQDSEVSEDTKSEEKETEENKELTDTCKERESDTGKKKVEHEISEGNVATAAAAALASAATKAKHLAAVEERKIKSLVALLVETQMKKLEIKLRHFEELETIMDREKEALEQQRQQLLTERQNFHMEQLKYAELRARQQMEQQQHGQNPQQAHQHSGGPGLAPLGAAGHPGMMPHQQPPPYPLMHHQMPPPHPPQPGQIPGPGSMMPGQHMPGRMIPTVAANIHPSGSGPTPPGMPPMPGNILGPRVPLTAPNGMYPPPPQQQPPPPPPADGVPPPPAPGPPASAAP

These are yes or no findings as the source states them, for the method shown. Binding seen in cells or lysates may run through a third protein. Some binding calls cover weakened binding; strength is not graded here.

The test deals with full-length wild-type HA-tagged CHD6 (human) (UniProt Q8TD26). The test is described as follows: co-IP; anti-HA immunoprecipitation of overexpressed wild-type or mutant HA-CHD6 from iPSCs, western blot for SMARCC1.

For the substance “SMARCC1 (BAF155) (from UniProt Q92922 1-1105)”, the binding result is “binds”.
